Reference: article PMC5963871
These are yes or no findings as the source states them, for the method shown. Binding seen in cells or lysates may run through a third protein. Some results given as binding are weak or reduced against the parent protein; the word gives no strength. For part of these data: Sequences can lack the tags named with a protein.

The chains behind the UniProt entries cited, without tags or fusion partners.
UniProt Q24572: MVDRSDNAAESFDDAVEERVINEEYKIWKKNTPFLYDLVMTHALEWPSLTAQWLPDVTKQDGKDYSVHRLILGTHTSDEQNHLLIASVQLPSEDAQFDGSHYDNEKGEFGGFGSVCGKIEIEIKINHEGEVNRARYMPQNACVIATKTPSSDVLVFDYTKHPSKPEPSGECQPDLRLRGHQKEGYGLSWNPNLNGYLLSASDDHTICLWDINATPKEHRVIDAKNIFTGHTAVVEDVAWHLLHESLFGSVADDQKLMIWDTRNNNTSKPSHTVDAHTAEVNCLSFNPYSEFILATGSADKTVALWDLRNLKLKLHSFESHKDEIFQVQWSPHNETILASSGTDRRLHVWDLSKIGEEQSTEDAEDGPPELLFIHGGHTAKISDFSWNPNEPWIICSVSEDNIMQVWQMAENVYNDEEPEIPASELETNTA

T1: Drosophila Ash1_(XL-SET) (Ash1_(1275-1522)) (Drosophila) (UniProt Q9VW15)
T1 sequence: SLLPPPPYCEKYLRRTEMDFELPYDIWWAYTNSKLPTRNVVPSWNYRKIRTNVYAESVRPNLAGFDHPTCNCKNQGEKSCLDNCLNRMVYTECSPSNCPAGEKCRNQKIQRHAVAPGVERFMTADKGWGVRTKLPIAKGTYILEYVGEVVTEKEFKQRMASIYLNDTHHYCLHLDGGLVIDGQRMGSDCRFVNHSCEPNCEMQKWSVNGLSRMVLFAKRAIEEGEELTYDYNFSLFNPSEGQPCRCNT

T2: Strep-tagged full-length MRG15 (S-MRG15) (Drosophila) (UniProt Q9Y0I1)
T2 sequence: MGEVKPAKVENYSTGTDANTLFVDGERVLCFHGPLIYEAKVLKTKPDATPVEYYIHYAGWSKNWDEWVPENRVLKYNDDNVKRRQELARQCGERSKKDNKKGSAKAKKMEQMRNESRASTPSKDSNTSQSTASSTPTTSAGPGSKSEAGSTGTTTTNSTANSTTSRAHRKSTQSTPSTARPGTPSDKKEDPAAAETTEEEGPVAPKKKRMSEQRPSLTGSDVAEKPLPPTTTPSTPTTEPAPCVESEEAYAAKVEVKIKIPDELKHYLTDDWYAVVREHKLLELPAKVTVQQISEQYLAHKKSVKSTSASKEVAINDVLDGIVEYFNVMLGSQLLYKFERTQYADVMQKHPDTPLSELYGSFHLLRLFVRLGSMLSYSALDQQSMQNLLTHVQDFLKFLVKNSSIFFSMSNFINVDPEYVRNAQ


Legend:
[1] = target: T1, Drosophila Ash1_(XL-SET) (Ash1_(1275-1522)) (Drosophila); experiment: pull-down; co-expression in E. coli BL21 (RILP); complex purified on Ni-NTA by the N-terminal 6xHis tag of the Ash1/ASH1L fragment, TEV cleavage, ion exchange and size exclusion chromatography in 50 mM Tris HCl pH 8.0, 100 mM NaCl
[2] = target: Strep-tagged Caf1 (S-Caf1) (Drosophila) (UniProt Q24572); experiment: pull-down; Strep-Tactin affinity purification from Hi-5 cells co-expressing the proteins (baculovirus); lysis and washes in 20 mM Tris-HCl pH 8, 300 mM KCl, 2 mM MgCl2, 15% glycerol, 0.1% NP-40 substitute; elution with 5 mM d-desthiobiotin; Coomassie Blue-stained gel
[3] = target: T2, Strep-tagged full-length MRG15 (S-MRG15) (Drosophila); experiment: as above
[4] = target: T2, Strep-tagged full-length MRG15 (S-MRG15) (Drosophila); experiment: pull-down; His-affinity (Ni-NTA) purification from Hi-5 cells co-expressing H-Caf1, MRG15 and Ash1C; 20 mM Tris-HCl pH 8, 300 mM KCl, 5 mM imidazole; elution with 250 mM imidazole; Coomassie Blue-stained gel
[5] = target: His-tagged Caf1 (H-Caf1) (Drosophila) (UniProt Q24572); experiment: as above

binding [1] | Binder | binding [2] | binding [3] | binding [4] | binding [5]
binds | Drosophila full-length MRG15 (E. coli) (protein, UniProt Q9Y0I1 1-424) MGEVKPAKVENYSTGTDANTLFVDGERVLCFHGPLIYEAKVLKTKPDATPVEYYIHYAGWSKNWDEWVPENRVLKYNDDNVKRRQELARQCGERSKKDNKKGSAKAKKMEQMRNESRASTPSKDSNTSQSTASSTPTTSAGPGSKSEAGSTGTTTTNSTANSTTSRAHRKSTQSTPSTARPGTPSDKKEDPAAAETTEEEGPVAPKKKRMSEQRPSLTGSDVAEKPLPPTTTPSTPTTEPAPCVESEEAYAAKVEVKIKIPDELKHYLTDDWYAVVREHKLLELPAKVTVQQISEQYLAHKKSVKSTSASKEVAINDVLDGIVEYFNVMLGSQLLYKFERTQYADVMQKHPDTPLSELYGSFHLLRLFVRLGSMLSYSALDQQSMQNLLTHVQDFLKFLVKNSSIFFSMSNFINVDPEYVRNAQ |  |  |  | 
 | Drosophila Ash1_(1041-2226) (Ash1C) (domain or fragment, UniProt Q9VW15 1041-2226) TNQKAPRLSVVALERLQRPQTPARGRPRGRKPKNREQAEAAPQPPPKSEPEIRPAKKRGRQPKQPVLEEPPPTPPPQQKKNKMEPNIRLPDGIDPNTNFSCKIRLKRRKNLEAGTQPKKEKPVQPVTVEEIPPEIPVSQEEIDAEAEAKRLDSIPTEHDPLPASESHNPGPQDYASCSESSEDKASTTSLRKLSKVKKTYLVAGLFSNHYKQSLMPPPAKVNKKPGLEEQVGPASLLPPPPYCEKYLRRTEMDFELPYDIWWAYTNSKLPTRNVVPSWNYRKIRTNVYAESVRPNLAGFDHPTCNCKNQGEKSCLDNCLNRMVYTECSPSNCPAGEKCRNQKIQRHAVAPGVERFMTADKGWGVRTKLPIAKGTYILEYVGEVVTEKEFKQRMASIYLNDTHHYCLHLDGGLVIDGQRMGSDCRFVNHSCEPNCEMQKWSVNGLSRMVLFAKRAIEEGEELTYDYNFSLFNPSEGQPCRCNTPQCRGVIGGKSQRVKPLPAVEAKPSGEGLSGRNGRQRKQKAKKHAQRQAGKDISSAVAVAKLQPLSEKEKKLVRQFNTFLVRNFEKIRRCKAKRASDAAATASSPALGTTNGDIPGRRPSTPSSPSLAAQISALCSPRNIKTRGLTQAVHDPELEKMAKMAVVLRDICSAMETLKMSDLLTTVSSKKKKPIKTTLSGKLGSTAATSKVEFRSIQAQVEQGHYKTPQEFDDHMQQLFVEAKQQHGDDEGKEKALQSLKDSYEQQKIASYVQLVEILGDSESLQSFKPKEVLSSEEEPGKIAVKKSPGAKERDSPIVPLKVTPPPLLPIEASPDEDVIRCICGLYKDEGLMIQCSKCMVWQHTECTKADIDADNYQCERCEPREVDREIPLEEFTEEGHRYYLSLMRGDLQVRQGDAVYVLRDIPIKDESGKVLPTKKHTYETIGAIDYQECDIFRVEHLWKNELGKRFIFGHHFLRPHETFHEPSRRFYPNEVVRVSLYEVVPIELVIGRCWVLDRTTFCKGRPMECNDEDHCYICELRVDKTARFFSKAKANHPACTKSYAFRKFPEKIKISKSYAPHDVDPSLLKTRKQKTELDVGAGPTTMHKVSGRQEQHQAKMVGRKPRGISAPADATAVHVVTPVAPNKQMLKKRKSRLENVLITMKLKCLDAQTAQEQPIDLSYLLSGRGARQRKTQQSSSSSTANST | binds | binds | binds | binds
 | Ash1C^R1464A (domain or fragment, UniProt Q9VW15 1041-2226) TNQKAPRLSVVALERLQRPQTPARGRPRGRKPKNREQAEAAPQPPPKSEPEIRPAKKRGRQPKQPVLEEPPPTPPPQQKKNKMEPNIRLPDGIDPNTNFSCKIRLKRRKNLEAGTQPKKEKPVQPVTVEEIPPEIPVSQEEIDAEAEAKRLDSIPTEHDPLPASESHNPGPQDYASCSESSEDKASTTSLRKLSKVKKTYLVAGLFSNHYKQSLMPPPAKVNKKPGLEEQVGPASLLPPPPYCEKYLRRTEMDFELPYDIWWAYTNSKLPTRNVVPSWNYRKIRTNVYAESVRPNLAGFDHPTCNCKNQGEKSCLDNCLNRMVYTECSPSNCPAGEKCRNQKIQRHAVAPGVERFMTADKGWGVRTKLPIAKGTYILEYVGEVVTEKEFKQRMASIYLNDTHHYCLHLDGGLVIDGQRMGSDCAFVNHSCEPNCEMQKWSVNGLSRMVLFAKRAIEEGEELTYDYNFSLFNPSEGQPCRCNTPQCRGVIGGKSQRVKPLPAVEAKPSGEGLSGRNGRQRKQKAKKHAQRQAGKDISSAVAVAKLQPLSEKEKKLVRQFNTFLVRNFEKIRRCKAKRASDAAATASSPALGTTNGDIPGRRPSTPSSPSLAAQISALCSPRNIKTRGLTQAVHDPELEKMAKMAVVLRDICSAMETLKMSDLLTTVSSKKKKPIKTTLSGKLGSTAATSKVEFRSIQAQVEQGHYKTPQEFDDHMQQLFVEAKQQHGDDEGKEKALQSLKDSYEQQKIASYVQLVEILGDSESLQSFKPKEVLSSEEEPGKIAVKKSPGAKERDSPIVPLKVTPPPLLPIEASPDEDVIRCICGLYKDEGLMIQCSKCMVWQHTECTKADIDADNYQCERCEPREVDREIPLEEFTEEGHRYYLSLMRGDLQVRQGDAVYVLRDIPIKDESGKVLPTKKHTYETIGAIDYQECDIFRVEHLWKNELGKRFIFGHHFLRPHETFHEPSRRFYPNEVVRVSLYEVVPIELVIGRCWVLDRTTFCKGRPMECNDEDHCYICELRVDKTARFFSKAKANHPACTKSYAFRKFPEKIKISKSYAPHDVDPSLLKTRKQKTELDVGAGPTTMHKVSGRQEQHQAKMVGRKPRGISAPADATAVHVVTPVAPNKQMLKKRKSRLENVLITMKLKCLDAQTAQEQPIDLSYLLSGRGARQRKTQQSSSSSTANST |  | binds |  | 
